Assay results from article PMC2679207, “GLS-1, a Novel P Granule Component, Modulates a Network of Conserved RNA Regulators to Influence Germ Cell Fate Decisions” (PLoS Genetics, 2009).
Results are given in words; binding and its absence hold for the method and conditions named. For some of these results: A result given as binding can be weak or reduced; the word gives no strength. Where a sequence is shown, tags or fusion partners need not be part of it. Blank lines part the entries; values can stand above or below the molecule they belong to.

Key:
[1] = target: T1, GLD-3L (yeast two-hybrid fusion) (C. elegans) (UniProt Q95ZK7); assay: two-hybrid; yeast; protein truncations; strength rated by the blue colour of a beta-galactosidase substrate (filter assay)
T1 sequence: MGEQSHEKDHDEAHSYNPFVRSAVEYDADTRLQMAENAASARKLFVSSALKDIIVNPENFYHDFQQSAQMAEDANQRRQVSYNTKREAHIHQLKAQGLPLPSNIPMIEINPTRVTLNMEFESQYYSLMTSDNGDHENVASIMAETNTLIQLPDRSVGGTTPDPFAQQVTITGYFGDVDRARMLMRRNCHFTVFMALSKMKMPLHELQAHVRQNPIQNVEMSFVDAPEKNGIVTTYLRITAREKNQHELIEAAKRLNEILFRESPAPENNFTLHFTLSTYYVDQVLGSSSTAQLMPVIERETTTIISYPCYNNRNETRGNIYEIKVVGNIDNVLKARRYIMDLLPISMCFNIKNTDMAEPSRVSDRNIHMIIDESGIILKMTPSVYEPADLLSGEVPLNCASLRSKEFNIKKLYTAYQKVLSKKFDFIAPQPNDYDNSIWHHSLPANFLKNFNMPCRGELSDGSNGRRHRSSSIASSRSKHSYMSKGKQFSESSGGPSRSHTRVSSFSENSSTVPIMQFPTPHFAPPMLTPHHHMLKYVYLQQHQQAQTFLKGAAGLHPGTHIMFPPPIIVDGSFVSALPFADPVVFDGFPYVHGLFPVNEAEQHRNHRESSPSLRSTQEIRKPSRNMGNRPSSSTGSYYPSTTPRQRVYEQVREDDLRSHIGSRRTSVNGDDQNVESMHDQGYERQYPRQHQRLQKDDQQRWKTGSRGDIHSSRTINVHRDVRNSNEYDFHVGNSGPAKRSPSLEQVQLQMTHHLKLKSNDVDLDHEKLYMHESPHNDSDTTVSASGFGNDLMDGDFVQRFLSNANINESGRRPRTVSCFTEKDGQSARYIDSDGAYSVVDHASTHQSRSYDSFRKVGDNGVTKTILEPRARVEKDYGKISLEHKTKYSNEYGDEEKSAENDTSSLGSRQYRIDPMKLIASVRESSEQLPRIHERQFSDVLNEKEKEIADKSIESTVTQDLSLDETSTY

[2] = target: GST fusion of the C-terminal half of GLD-3L (C. elegans); assay: pull-down; GST pull-down; purified full-length GLS-1^6xHis and GLD-3 fragments fused to GST; GLS-1 visualized with anti-His antibodies; both purified
[3] = target: GLD-3L N-terminal region covering all KH domains (yeast two-hybrid fusion) (C. elegans); assay: two-hybrid; yeast; protein truncations; strength rated by the blue colour of a beta-galactosidase substrate (filter assay)
[4] = target: ceBCC-1 (yeast two-hybrid fusion) (C. elegans); assay: two-hybrid; yeast; protein pairs fused to the LexA DNA binding domain and the Gal4 transcriptional activation domain; beta-galactosidase activities in arbitrary units

- binding [1]: binds
Molecule: GLS-1 C-terminal region of 160 amino acids (yeast two-hybrid fusion) (C. elegans) (domain or fragment)

- binding [2]: binds
B1: GLS-1(FL) with C-terminal His tag, from insect cells (protein, UniProt Q8I4M5 26-1052)
chain: LTLQEKRKKSRLTGILMKSMANKKNHQQKKSTDGSTMNGNNATATAAATTQNSSQIGQNSNSSHSVTNDNTSSNNASTSTSSITSTTTTTTTVPSSQQSQSQNQYSHQRLSSTSSTSQQTGISKFPAKKAGHNELEKTSNTANSQSGAFKGTTNKDRPKEKEKNTHSGNRQSQVNHNHHHSNHVSGNQQNRKNKNRDHSNQSYRGGYTHNHNNYHSLENAKSSGFLSNSSLSSAGQISASSAPPVSTTPTAIPIFQESKIVQTDPPVEEAKKKKEKPKIKRDEEPMPYKSTDPKNMDSVMAFKEHDEWDKVEFMCELVSFLSPTDLRLLGNCIEGSVRCYNNQMRPVEKTSNCSDPTAGLPQFVCSPPPPPQQVYYFPGIADAALYQTRNAVNSVFVQQHPPGLPPLLGGMQNIMYPPDANFHHSTSCTTPSSSVSVANKDVNNVPVVLSSSVNGISNNIPSDRQQLDSKPNTARGSSGNINQSNTTSPEPEPGSNHISTTAANPAHPTSVTVPQSVPPVPQEPELFLKSVLDLTSYIYTLMAVCSSTNRKSAAKISDYVQNVILREKSQILERIPDELDKITVLQEIGKIVAAMTHHPAITLDDKMKYAALRDGLRAQIETLFRQYYTTQKQLEQSNLVVPSSQAVGDENDTDSDHESEEEFEPLSGVMGSRFESNPVQPSPSVPGTFFIIRFIGRQIEKNDNLFSLEIHWSDGDRTFAQRSRDQLKALQHRLLDEFGQQRSEKYLHQGCTTSYSSFDDDNKKLSASTSTMETFAPNGERIVPRLARDATPAQYVQYINELSDLPARMMLSAVICEEFNGTRAKTEDLLQETREASDGLIYSRWKNPRAKSPVRYFKRNATGSIDPIELPVNMQPFLYSNIPQTQVQTLFPSCSNCGGPHAPKHCEKQTLLSKKGDHRTRSDGEGSQQNGGTSSSNSYAPIHANLPHAVYIENPQAMLGSNHFNHHQQQHIIQNTIFHNGGQFRANGTYEPQIPIAYYHAQGTVQNSNNTGGVNGNSGGGNQNSNF

- binding [3]: binds
- binding [4]: no binding
B2: GLS-1 (yeast two-hybrid fusion) (protein, UniProt Q8I4M5 1-1052)
chain: MRCLISYLFHSFLIFLKFIRSDVTALTLQEKRKKSRLTGILMKSMANKKNHQQKKSTDGSTMNGNNATATAAATTQNSSQIGQNSNSSHSVTNDNTSSNNASTSTSSITSTTTTTTTVPSSQQSQSQNQYSHQRLSSTSSTSQQTGISKFPAKKAGHNELEKTSNTANSQSGAFKGTTNKDRPKEKEKNTHSGNRQSQVNHNHHHSNHVSGNQQNRKNKNRDHSNQSYRGGYTHNHNNYHSLENAKSSGFLSNSSLSSAGQISASSAPPVSTTPTAIPIFQESKIVQTDPPVEEAKKKKEKPKIKRDEEPMPYKSTDPKNMDSVMAFKEHDEWDKVEFMCELVSFLSPTDLRLLGNCIEGSVRCYNNQMRPVEKTSNCSDPTAGLPQFVCSPPPPPQQVYYFPGIADAALYQTRNAVNSVFVQQHPPGLPPLLGGMQNIMYPPDANFHHSTSCTTPSSSVSVANKDVNNVPVVLSSSVNGISNNIPSDRQQLDSKPNTARGSSGNINQSNTTSPEPEPGSNHISTTAANPAHPTSVTVPQSVPPVPQEPELFLKSVLDLTSYIYTLMAVCSSTNRKSAAKISDYVQNVILREKSQILERIPDELDKITVLQEIGKIVAAMTHHPAITLDDKMKYAALRDGLRAQIETLFRQYYTTQKQLEQSNLVVPSSQAVGDENDTDSDHESEEEFEPLSGVMGSRFESNPVQPSPSVPGTFFIIRFIGRQIEKNDNLFSLEIHWSDGDRTFAQRSRDQLKALQHRLLDEFGQQRSEKYLHQGCTTSYSSFDDDNKKLSASTSTMETFAPNGERIVPRLARDATPAQYVQYINELSDLPARMMLSAVICEEFNGTRAKTEDLLQETREASDGLIYSRWKNPRAKSPVRYFKRNATGSIDPIELPVNMQPFLYSNIPQTQVQTLFPSCSNCGGPHAPKHCEKQTLLSKKGDHRTRSDGEGSQQNGGTSSSNSYAPIHANLPHAVYIENPQAMLGSNHFNHHQQQHIIQNTIFHNGGQFRANGTYEPQIPIAYYHAQGTVQNSNNTGGVNGNSGGGNQNSNF
